Our source for the number values is the supplement of paper PMC4299490.

± gives the standard deviation of the averaged measurements. The data scatter; read single values as rough.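 Each ligand was tested at three doses, and effects were judged against wells given only the basal cytokines. TGFB1 at 10 ng/ml served as a negative control and SR1 as a positive control for HSC expansion.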

Assay [1] concerns human umbilical cord blood Lin-RholowCD34+CD38-CD45RA-CD49f+ HSC-enriched cells. In words: number of CD34- mature cells per well on day 7 (from 40 seeded cells); higher = more mature cell output. Particulars: culture time: 7 days, basal cytokines: 100 ng/ml SCF + 50 ng/ml THPO + 100 ng/ml FLT3LG. The protocol: (§1)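 Forty human umbilical cord blood Lin-RholowCD34+CD38-CD45RA-CD49f+ HSC-enriched cells were cultured per well in serum-free medium with basal cytokines (100 ng/ml SCF, 50 ng/ml THPO, 100 ng/ml FLT3LG) plus one test ligand (recombinant protein or small-molecule inhibitor) at the stated concentration. On day 7, flow cytometry counted CD34+CD133+CD90+ HSC-enriched cells and CD34- mature cells; progenitors (CD34+ cells that are CD133- or CD90-) were calculated as total - HSC-enriched - mature. Values are absolute cell numbers per well, corrected for the 30 µl dead volume and averaged over experiments; they are not normalised to the basal-cytokine control, and they vary strongly between experiments. Concentrations are in ng/ml, except SR1, which is 0.75 µM.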

Assay [2] shares this test system. In words: number of CD34+CD133+CD90+ HSC-enriched cells per well on day 7 (from 40 seeded cells); higher = more HSC-enriched cell output. Particulars: culture time: 7 days, basal cytokines: 100 ng/ml SCF + 50 ng/ml THPO + 100 ng/ml FLT3LG. The protocol: as §1
[3] abbreviates: ligand concentration (ng/ml; SR1 in µM as written): 10.
[4] abbreviates: ligand concentration (ng/ml; SR1 in µM as written): 1.
[5] abbreviates: ligand concentration (ng/ml; SR1 in µM as written): 25.
Where [6] appears, read: ligand concentration (ng/ml; SR1 in µM as written): 100.
The mark [7] stands for this setting: ligand concentration (ng/ml; SR1 in µM as written): 50.
The mark [8] stands for this setting: ligand concentration (ng/ml; SR1 in µM as written): 200.
Setting [9] is: ligand concentration (ng/ml; SR1 in µM as written): 1000.
Setting [10] is: ligand concentration (ng/ml; SR1 in µM as written): 0.1.
Where [11] appears, read: ligand concentration (ng/ml; SR1 in µM as written): 150.

With `NC(=O)c1ccc(-c2nc(-c3ccccn3)c(-c3ccc4c(c3)OCO4)[nH]2)cc1`, the number in assay [1] (setting [3]) stood at 988 ± 230; in assay [2] (setting [3]), 47.9 ± 4.4.

With BMP6, the number in assay [1] (setting [4]) came to 328 ± 270; in assay [1] (setting [5]), 444 ± 380; in assay [1] (setting [6]), 389 ± 400; in assay [2] (setting [4]), 102 ± 65; in assay [2] (setting [5]), 93 ± 71; in assay [2] (setting [6]) it was 81.3 ± 57.

Turning to “H-MTLIGAAHNGSAQLLRQLRGQLGPPGSR-NH2 [OrexinB]”, the number in assay [1] (setting [7]) came out at 280 ± 130; in assay [1] (setting [8]), 440 ± 290; in assay [1] (setting [9]) it was 404 ± 210; in assay [2] (setting [7]), 189 ± 44; in assay [2] (setting [8]) it was 174 ± 43; in assay [2] (setting [9]), 146 ± 60.

As for “MAARRSQRRRGRRGEPGTALLVPLALGLGLALACLGLLLAVVSLGSRASLSAQEPAQEELVAEEDQDPSELNPQTEESQDPAPFLNRLVRPRRSAPKGRKTRARRAIAAHYEVHPRPGQDGAQAGVDGTVSGWEEARINSSSPLRYNRQIGEFIVTRAGLYYLYCQVHFDEGKAVYLKLDLLVDGVLALRCLEEFSATAASSLGPQLRLCQVSGLLALRPGSSLRIRTLPWAHLKAAPFLTYFGLFQVH”, the number in assay [1] (setting [4]) was determined as 378 ± 270; in assay [1] (setting [3]), 361 ± 260; in assay [1] (setting [6]) it was 294 ± 210; in assay [2] (setting [4]), 97.6 ± 65; in assay [2] (setting [3]) it was 93.7 ± 76; in assay [2] (setting [6]), 94 ± 73.

Turning to “MAGPATQSPMKLMALQLLLWHSALWTVQEATPLGPASSLPQSFLLKCLEQVRKIQGDGAALQEKLVSECATYKLCHPEELVLLGHSLGIPWAPLSSCPSQALQLAGCLSQLHSGLFLYQGLLQALEGISPELGPTLDTLQLDVADFATTIWQQMEELGMAPALQPTQGAMPAFASAFQRRAGGVLVASHLQSFLEVSYRVLRHLAQP”, the number in assay [1] (setting [10]) worked out at 620 ± 400; in assay [1] (setting [3]) it was 1720 ± 1300; in assay [1] (setting [6]), 1730 ± 1300; in assay [2] (setting [10]), 108 ± 40; in assay [2] (setting [3]), 175 ± 79; in assay [2] (setting [6]), 205 ± 150.

On to “MAMMEVQGGPSLGQTCVLIVIFTVLLQSLCVAVTYVYFTNELKQMQDKYSKSGIACFLKEDDSYWDPNDEESMNSPCWQVKWQLRQLVRKMILRTSEETISTVQEKQQNISPLVRERGPQRVAAHITGTRGRSNTLSSPNSKNEKALGRKINSWESSRSGHSFLSNLHLRNGELVIHEKGFYYIYSQTYFRFQEEIKENTKNDKQMVQYIYKYTSYPDPILLMKSARNSCWSKDAEYGLYSIYQGGIFELKENDRIFVSVTNEHLIDMDHEASFFGAFLVG”, for which the number is 434 ± 260 in assay [1] (setting [4]); 564 ± 390 in assay [1] (setting [3]); 285 ± 240 in assay [1] (setting [6]); 168 ± 64 in assay [2] (setting [4]); 227 ± 80 in assay [2] (setting [3]); 101 ± 65 in assay [2] (setting [6]).

In the case of “MCPARSLLLVATLVLLDHLSLARNLPVATPDPGMFPCLHHSQNLLRAVSNMLQKARQTLEFYPCTSEEIDHEDITKDKTSTVEACLPLELTKNESCLNSRETSFITNGSCLASRKTSFMMALCLSSIYEDLKMYQVEFKTMNAKLLMDPKRQIFLDQNMLAVIDELMQALNFNSETVPQKSSLEEPDFYKTKIKLCILLHAFRIRAVTIDRVMSYLNAS”, the number in assay [1] (setting [4]) was determined as 427 ± 280; in assay [1] (setting [3]), 429 ± 320; in assay [1] (setting [11]) it was 365 ± 290; in assay [2] (setting [4]), 112 ± 110; in assay [2] (setting [3]), 116 ± 110; in assay [2] (setting [11]), 120 ± 140.

Turning to “MDRAARCSGASSLPLLLALALGLVILHCVVADGNSTRSPETNGLLCGDPEENCAATTTQSKRKGHFSRCPKQYKHYCIKGRCRFVVAEQTPSCVCDEGYIGARCERVDLFYLRGDRGQILVICLIAVMVVFIILVIGVCTCCHPLRKRRKRKKKEEEMETLGKDITPINEDIEETNIA”, the number in assay [1] (setting [4]) came out at 361 ± 270; in assay [1] (setting [7]), 334 ± 280; in assay [1] (setting [8]), 327 ± 280; in assay [2] (setting [4]), 84.7 ± 51; in assay [2] (setting [7]), 69.9 ± 36; in assay [2] (setting [8]), 89.5 ± 59.

For the molecule “MDTRNKAQLLVLLTLLSVLFSQTSAWPLYRAPSALRLGDRIPFEGANEPDQVSLKEDIDMLQNALAENDTPYYDVSRNARHADGVFTSDFSKLLGQLSAKKYLESLMGKRVSSNISEDPVPVKRHSDAVFTDNYTRLRKQMAVKKYLNSILNGKRSSEGESPDFPEELEK”, the number in assay [1] (setting [7]) stood at 318 ± 210; in assay [1] (setting [8]) it was 335 ± 150; in assay [1] (setting [9]), 480 ± 390; in assay [2] (setting [7]) it was 97.4 ± 75; in assay [2] (setting [8]) it was 128 ± 62; in assay [2] (setting [9]), 128 ± 74.

With “MFTIKLLLFIVPLVISSRIDQDNSSFDSLSPEPKSRFAMLDDVKILANGLLQLGHGLKDFVHKTKGQINDIFQKLNIFDQSFYDLSLQTSEIKEEEKELRRTTYKLQVKNEEVKNMSLELNSKLESLLEEKILLQQKVKYLEEQLTNLIQNQPETPEHPEVTSLKTFVEKQDNSIKDLLQTVEDQYKQLNQQHSQIKEIENQLRRTSIQEPTEISLSSKPRAPRTTPFLQLNEIRNVKHDGIPAECTTIYNRGEHTSGMYAIRPSNSQVFHVYCDVISGSPWTLIQHRIDGSQNFNETWENYKYGFGRLDGEFWLGLEKIYSIVKQSNYVLRIELEDWKDNKHYIEYSFYLGNHETNYTLHLVAITGNVPNAIPENKDLVFSTWDHKAKGHFNCPEGYSGGWWWHDECGENNLNGKYNKPRAKSKPERRRGLSWKSQNGRLYSIKSTKMLIHPTDSESFE”, the number in assay [1] (setting [4]) was found to be 324 ± 230; in assay [1] (setting [7]) it was 317 ± 190; in assay [1] (setting [8]), 332 ± 220; in assay [2] (setting [4]) it was 72.6 ± 39; in assay [2] (setting [7]), 92.6 ± 49; in assay [2] (setting [8]), 65.8 ± 22.

Turning to “MGKGDPKKPRGKMSSYAFFVQTCREEHKKKHPDASVNFSEFSKKCSERWKTMSAKEKGKFEDMAKADKARYEREMKTYIPPKGETKKKFKDPNAPKRPPSAFFLFCSEYRPKIKGEHPGLSIGDVAKKLGEMWNNTAADDKQPYEKKAAKLKEKYEKDIAAYRAKGKPDAAKKGVVKAEKSKKKKEEEEDEEDEEDEEEEEDEEDEDEEEDDDDE”, the number in assay [1] (setting [7]) turned out to be 375 ± 220; in assay [1] (setting [8]), 389 ± 260; in assay [1] (setting [9]), 488 ± 350; in assay [2] (setting [7]) it was 68.4 ± 32; in assay [2] (setting [8]), 72.7 ± 30; in assay [2] (setting [9]), 75.6 ± 29.

For the molecule “MHLSQLLACALLLTLLSLRPSEAKPGAPPKVPRTPPAEELAEPQAAGGGQKKGDKAPGGGGANLKGDRSRLLRDLRVDTKSRAAWARLLQEHPNARKYKGANKKGLSKGCFGLKLDRIGSMSGLGC”, the number in assay [1] (setting [7]) amounted to 204 ± 190; in assay [1] (setting [8]), 297 ± 290; in assay [1] (setting [9]), 331 ± 230; in assay [2] (setting [7]), 103 ± 25; in assay [2] (setting [8]), 85.8 ± 35; in assay [2] (setting [9]) it was 94.8 ± 36.

As to “MIPGNRMLMVVLLCQVLLGGASHASLIPETGKKKVAEIQGHAGGRRSGQSHELLRDFEATLLQMFGLRRRPQPSKSAVIPDYMRDLYRLQSGEEEEEQIHSTGLEYPERPASRANTVRSFHHEEHLENIPGTSENSAFRFLFNLSSIPENEVISSAELRLFREQVDQGPDWERGFHRINIYEVMKPPAEVVPGHLITRLLDTRLVHHNVTRWETFDVSPAVLRWTREKQPNYGLAIEVTHLHQTRTHQGQHVRISRSLPQGSGNWAQLRPLLVTFGHDGRGHALTRRRRAKRSPKHHSQRARKKNKNCRRHSLYVDFSDVGWNDWIVAPPGYQAFYCHGDCPFPLADHLNSTNHAIVQTLVNSVNSSIPKACCVPTELSAISMLYLDEYDKVVLKNYQEMVVEGCGCR”, the number amounted to 340 ± 200 in assay [1] (setting [4]); 541 ± 560 in assay [1] (setting [5]); 400 ± 340 in assay [1] (setting [6]); 90.8 ± 56 in assay [2] (setting [4]); 112 ± 71 in assay [2] (setting [5]); 110 ± 83 in assay [2] (setting [6]).

Regarding “MNCVCRLVLVVLSLWPDTAVAPGPPPGPPRVSPDPRAELDSTVLLTRSLLADTRQLAAQLRDKFPADGDHNLDSLPTLAMSAGALGALQLPGVLTRLRADLLSYLRHVQWLRRAGGSSLKTLEPELGTLQARLDRLLRRLQLLMSRLALPQPPPDPPAPPLAPPSSAWGGIRAAHAILGGLHLTLDWAVRGLLLLKTRL”, the number in assay [1] (setting [4]) was 290 ± 460; in assay [1] (setting [3]), 255 ± 320; in assay [1] (setting [11]) it was 489 ± 550; in assay [2] (setting [4]), 69.3 ± 55; in assay [2] (setting [3]) it was 62.1 ± 53; in assay [2] (setting [11]), 151 ± 150.
